Data as given in patent US8124365B2, “Identification of genotype-selective anti-tumor agents” (Whitehead Institute for Biomedical Research, priority 2003, dated 2012).

Test system: BJ-TERT/LT/ST/RAS^V12 cells
Experiment: Calcein AM viability assay, dilution series, BJ-TERT/LT/ST/RAS^V12 tumorigenic cells
Type: cell-based, human
Conditions: from selectivity ratio for each subsequent pair of cell lines in a series
Method: Described here is work carried out to identify compounds with increased potency or activity in the presence of hTERT, LT, ST, E6, E7 or RAS^V12. […] The primary screen tested (in quadruplicate) the effect of treating tumorigenic […], corresponding to 10 μM for a compound with a molecular weight of 400, which is the approximate median molecular weight of the libraries. […] In live cells, calcein AM is cleaved by intracellular esterases, forming the anionic fluorescent derivative calcein, which cannot diffuse out of live cells. […] The IC50 value (concentration required to inhibit 50% of the calcein AM signal) was calculated for each compound in each cell line (Table 1).
Calcein acetoxylmethyl ester (AM) is a cell membrane-permeable, non-fluorescent compound that is cleaved by intracellular esterases to form the anionic, cell-impermeable, fluorescent compound calcein. Viable cells are stained by calcein because of the presence of intracellular esterases and because the intact plasma membrane prevents fluorescent calcein from leaking out of cells (Wang et al., 1993, supra). […] Total fluorescence intensity in each well was recorded on a Packard Fusion platereader, and converted to a percent inhibition of signal by subtracting the instrument background and dividing by the average signal obtained when cells were not treated with any compound. […]

Compound | Genetic basis of Selectivity
Cc1c2ccccc2c(CSC(=N)N)c2ccccc12.Cl [NSC146109] | non-specific
CC[C@@]1(O)C(=O)OCc2c1cc1n(c2=O)Cc2cc3ccccc3nc2-1 [Camptothecin, camptothecin] | RAS^v12/PP2A/RB
